In experiment [1] the target is T1, Myc-tagged TM6SF2 (mouse) (UniProt Q8R1J1).
T1 sequence: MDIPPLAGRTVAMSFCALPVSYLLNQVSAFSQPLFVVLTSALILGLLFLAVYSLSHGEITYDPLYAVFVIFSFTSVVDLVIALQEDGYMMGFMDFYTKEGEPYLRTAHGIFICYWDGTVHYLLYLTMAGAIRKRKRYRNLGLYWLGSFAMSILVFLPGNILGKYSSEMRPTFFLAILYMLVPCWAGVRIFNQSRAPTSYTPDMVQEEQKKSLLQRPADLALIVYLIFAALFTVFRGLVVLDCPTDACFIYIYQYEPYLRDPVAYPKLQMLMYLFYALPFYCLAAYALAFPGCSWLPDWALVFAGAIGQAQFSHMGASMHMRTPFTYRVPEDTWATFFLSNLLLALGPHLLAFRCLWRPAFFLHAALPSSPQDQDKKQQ
Nature of the experiment: co-IP; sequential immunoprecipitation from Huh7 cells transfected with FLAG-APOB48, Myc-TM6SF2 and EGFP-ERLIN1: first anti-FLAG beads, elution with 3×FLAG peptide, then anti-Myc beads; immunoblotting. A general note: Immunoblotting shows a protein as a band on a membrane.

By UniProt entry, the sequences of proteins in these tests, tags left out. Residues count along the entry.
UniProt Q7TMA5, residues 28-4743: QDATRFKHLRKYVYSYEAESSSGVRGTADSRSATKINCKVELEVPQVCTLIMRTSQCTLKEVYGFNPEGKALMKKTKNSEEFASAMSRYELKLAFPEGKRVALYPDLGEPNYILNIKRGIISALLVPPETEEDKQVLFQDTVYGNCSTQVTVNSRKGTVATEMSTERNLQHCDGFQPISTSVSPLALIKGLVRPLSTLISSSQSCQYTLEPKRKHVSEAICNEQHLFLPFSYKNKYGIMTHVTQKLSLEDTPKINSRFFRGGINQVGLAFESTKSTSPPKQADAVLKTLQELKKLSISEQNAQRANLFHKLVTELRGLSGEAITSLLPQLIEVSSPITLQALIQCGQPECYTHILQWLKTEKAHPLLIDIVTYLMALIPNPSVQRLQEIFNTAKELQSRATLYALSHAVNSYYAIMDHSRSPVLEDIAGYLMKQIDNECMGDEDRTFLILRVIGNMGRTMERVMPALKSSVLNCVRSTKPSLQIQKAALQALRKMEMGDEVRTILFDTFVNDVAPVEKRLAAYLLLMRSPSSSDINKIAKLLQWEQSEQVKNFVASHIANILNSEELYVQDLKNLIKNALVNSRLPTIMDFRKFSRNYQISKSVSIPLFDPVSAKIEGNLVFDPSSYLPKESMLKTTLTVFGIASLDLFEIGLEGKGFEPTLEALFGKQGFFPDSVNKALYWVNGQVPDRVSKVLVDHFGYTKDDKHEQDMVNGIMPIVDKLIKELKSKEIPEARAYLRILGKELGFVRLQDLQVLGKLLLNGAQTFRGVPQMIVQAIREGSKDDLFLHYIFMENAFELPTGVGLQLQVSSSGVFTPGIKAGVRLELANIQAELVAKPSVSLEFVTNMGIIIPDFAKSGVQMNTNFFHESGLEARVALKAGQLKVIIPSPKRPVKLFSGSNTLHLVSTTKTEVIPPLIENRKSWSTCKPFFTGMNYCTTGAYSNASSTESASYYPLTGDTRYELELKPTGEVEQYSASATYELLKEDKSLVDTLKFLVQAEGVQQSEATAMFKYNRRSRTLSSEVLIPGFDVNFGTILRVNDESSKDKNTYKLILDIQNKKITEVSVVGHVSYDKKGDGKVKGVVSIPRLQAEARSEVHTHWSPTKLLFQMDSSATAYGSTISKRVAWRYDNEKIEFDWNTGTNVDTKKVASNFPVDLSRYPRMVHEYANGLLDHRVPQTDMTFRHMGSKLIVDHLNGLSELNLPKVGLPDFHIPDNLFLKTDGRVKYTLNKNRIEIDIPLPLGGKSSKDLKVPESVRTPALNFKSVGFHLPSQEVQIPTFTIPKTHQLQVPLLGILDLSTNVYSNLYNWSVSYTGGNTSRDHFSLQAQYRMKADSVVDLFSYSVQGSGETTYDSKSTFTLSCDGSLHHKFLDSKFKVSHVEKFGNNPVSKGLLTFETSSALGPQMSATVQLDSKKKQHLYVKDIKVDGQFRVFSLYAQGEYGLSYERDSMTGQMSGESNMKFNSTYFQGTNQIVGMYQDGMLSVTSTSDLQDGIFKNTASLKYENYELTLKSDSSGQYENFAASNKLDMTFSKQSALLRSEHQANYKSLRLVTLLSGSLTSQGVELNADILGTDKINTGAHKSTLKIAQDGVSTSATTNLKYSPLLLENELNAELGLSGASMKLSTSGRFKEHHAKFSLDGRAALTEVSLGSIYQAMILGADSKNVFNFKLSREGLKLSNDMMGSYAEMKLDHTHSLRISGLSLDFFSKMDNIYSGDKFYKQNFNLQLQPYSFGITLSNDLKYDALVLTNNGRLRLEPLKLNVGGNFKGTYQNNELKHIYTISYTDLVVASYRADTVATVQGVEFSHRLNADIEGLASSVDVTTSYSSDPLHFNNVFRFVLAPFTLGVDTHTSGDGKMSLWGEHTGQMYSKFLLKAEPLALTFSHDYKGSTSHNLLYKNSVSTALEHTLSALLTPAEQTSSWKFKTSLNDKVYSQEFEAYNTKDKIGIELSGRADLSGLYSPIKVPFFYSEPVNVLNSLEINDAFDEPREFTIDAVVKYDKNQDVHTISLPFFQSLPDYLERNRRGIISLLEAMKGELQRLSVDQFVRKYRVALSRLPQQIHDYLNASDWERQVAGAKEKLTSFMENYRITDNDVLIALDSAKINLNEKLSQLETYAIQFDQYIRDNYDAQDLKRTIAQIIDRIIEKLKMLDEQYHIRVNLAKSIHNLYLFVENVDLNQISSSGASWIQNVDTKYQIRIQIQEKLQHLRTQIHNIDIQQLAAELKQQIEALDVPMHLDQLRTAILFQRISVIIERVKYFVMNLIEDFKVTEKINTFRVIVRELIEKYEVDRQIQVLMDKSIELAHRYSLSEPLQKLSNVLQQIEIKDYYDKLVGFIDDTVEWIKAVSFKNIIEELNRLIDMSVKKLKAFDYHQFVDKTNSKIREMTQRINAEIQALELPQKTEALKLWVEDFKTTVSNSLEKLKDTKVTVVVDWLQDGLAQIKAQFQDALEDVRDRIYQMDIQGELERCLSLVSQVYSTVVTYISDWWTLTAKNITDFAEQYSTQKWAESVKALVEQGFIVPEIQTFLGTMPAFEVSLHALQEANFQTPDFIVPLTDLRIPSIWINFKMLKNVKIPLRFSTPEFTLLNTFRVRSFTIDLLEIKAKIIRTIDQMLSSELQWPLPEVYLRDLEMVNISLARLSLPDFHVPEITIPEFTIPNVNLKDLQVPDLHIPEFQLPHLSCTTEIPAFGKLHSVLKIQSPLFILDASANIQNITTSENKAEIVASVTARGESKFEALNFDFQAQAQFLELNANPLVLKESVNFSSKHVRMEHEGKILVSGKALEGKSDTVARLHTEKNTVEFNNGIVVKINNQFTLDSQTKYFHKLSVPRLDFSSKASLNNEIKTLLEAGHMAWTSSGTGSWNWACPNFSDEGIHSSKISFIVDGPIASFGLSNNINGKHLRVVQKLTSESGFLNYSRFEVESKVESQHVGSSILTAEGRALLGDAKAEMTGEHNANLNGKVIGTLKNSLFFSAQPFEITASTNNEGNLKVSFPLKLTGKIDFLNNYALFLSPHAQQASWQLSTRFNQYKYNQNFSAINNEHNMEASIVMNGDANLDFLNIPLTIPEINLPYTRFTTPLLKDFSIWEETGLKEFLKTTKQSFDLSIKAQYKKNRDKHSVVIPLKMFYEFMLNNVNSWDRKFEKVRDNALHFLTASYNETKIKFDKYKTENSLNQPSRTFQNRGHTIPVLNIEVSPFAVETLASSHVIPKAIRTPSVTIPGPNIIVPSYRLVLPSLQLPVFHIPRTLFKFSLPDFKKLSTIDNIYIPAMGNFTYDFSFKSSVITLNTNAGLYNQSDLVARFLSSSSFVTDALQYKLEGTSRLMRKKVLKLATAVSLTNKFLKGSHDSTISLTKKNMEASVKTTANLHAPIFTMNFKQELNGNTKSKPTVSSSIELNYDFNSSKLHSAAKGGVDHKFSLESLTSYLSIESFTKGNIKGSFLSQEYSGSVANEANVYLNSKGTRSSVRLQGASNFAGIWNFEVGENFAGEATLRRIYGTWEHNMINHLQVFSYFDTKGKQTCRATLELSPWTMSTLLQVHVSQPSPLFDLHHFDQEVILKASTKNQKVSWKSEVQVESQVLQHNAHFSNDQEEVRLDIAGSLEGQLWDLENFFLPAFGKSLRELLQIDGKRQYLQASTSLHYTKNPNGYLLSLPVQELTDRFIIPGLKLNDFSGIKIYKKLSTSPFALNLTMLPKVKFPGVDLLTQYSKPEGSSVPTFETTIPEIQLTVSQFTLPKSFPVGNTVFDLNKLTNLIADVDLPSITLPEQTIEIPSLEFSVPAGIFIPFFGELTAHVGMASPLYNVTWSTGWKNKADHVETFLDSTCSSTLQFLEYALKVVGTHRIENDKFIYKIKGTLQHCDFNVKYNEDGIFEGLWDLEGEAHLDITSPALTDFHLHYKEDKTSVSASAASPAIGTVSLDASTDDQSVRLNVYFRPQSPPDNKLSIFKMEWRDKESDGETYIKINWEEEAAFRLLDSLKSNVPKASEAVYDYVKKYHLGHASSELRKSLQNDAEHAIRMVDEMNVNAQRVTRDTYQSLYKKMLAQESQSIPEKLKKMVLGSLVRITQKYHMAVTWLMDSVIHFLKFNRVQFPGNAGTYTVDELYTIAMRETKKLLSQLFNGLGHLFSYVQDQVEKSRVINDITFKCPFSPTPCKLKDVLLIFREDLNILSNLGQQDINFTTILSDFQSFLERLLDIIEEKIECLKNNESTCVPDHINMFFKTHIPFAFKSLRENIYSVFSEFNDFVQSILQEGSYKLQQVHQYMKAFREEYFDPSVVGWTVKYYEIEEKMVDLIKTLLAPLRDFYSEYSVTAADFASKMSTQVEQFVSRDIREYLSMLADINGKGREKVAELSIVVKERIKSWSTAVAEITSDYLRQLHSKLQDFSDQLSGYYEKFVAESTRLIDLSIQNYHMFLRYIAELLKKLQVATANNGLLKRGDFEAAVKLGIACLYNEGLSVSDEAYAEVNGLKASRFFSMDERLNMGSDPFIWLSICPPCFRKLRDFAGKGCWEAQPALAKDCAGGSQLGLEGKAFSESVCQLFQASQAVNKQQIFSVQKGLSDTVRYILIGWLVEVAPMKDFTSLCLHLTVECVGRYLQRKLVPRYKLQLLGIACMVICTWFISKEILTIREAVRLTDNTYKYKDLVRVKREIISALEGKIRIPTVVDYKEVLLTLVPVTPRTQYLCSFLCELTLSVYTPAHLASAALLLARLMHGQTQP

Experiment [2] deals with T1, Myc-tagged TM6SF2 (mouse). Kind of experiment: co-IP; Huh7 cells co-transfected, harvested after 48 h; lysates in PBS, 0.1% NP-40 incubated with anti-FLAG or anti-MYC beads at 4°C for 2 h; immunoblotting.
Experiment [3] addresses endogenous APOB (APOB100 and APOB48) of CRL1601 cells (rat (endogenous in CRL1601)) (UniProt Q7TMA5). Nature of the experiment: co-IP; endogenous proteins; APOBs immunoprecipitated from CRL1601 lysates with protein A/G beads coupled with the anti-APOB antibody; immunoblotting; protein A/G beads (Ctr IgG) as control.

No constants are given. Whether binding was seen depends on the method and setting. Binding seen in cells or lysates may run through a third protein. Some binding calls cover weakened binding; strength is not graded here. For some of these results: Tags and fused reporters may be left off the sequences shown.

B1: EGFP-tagged ERLIN1 (protein, UniProt O75477 1-348)
chain: MNMTQARVLVAAVVGLVAVLLYASIHKIEEGHLAVYYRGGALLTSPSGPGYHIMLPFITTFRSVQTTLQTDEVKNVPCGTSGGVMIYIDRIEVVNMLAPYAVFDIVRNYTADYDKTLIFNKIHHELNQFCSAHTLQEVYIELFDQIDENLKQALQKDLNLMAPGLTIQAVRVTKPKIPEAIRRNFELMEAEKTKLLIAAQKQKVVEKEAETERKKAVIEAEKIAQVAKIRFQQKVMEKETEKRISEIEDAAFLAREKAKADAEYYAAHKYATSNKHKLTPEYLELKKYQAIASNSKIYFGSNIPNMFVDSSCALKYSDIRTGRESSLPSKEALEPSGENVIQNKESTG
On to B1, for which, in experiment [1], the binding entry is reported as “binds”.

B2: ERLIN1 (co-expressed with Myc-tagged TM6SF2, Fig 3B) (protein, UniProt O75477 1-348)
chain: MNMTQARVLVAAVVGLVAVLLYASIHKIEEGHLAVYYRGGALLTSPSGPGYHIMLPFITTFRSVQTTLQTDEVKNVPCGTSGGVMIYIDRIEVVNMLAPYAVFDIVRNYTADYDKTLIFNKIHHELNQFCSAHTLQEVYIELFDQIDENLKQALQKDLNLMAPGLTIQAVRVTKPKIPEAIRRNFELMEAEKTKLLIAAQKQKVVEKEAETERKKAVIEAEKIAQVAKIRFQQKVMEKETEKRISEIEDAAFLAREKAKADAEYYAAHKYATSNKHKLTPEYLELKKYQAIASNSKIYFGSNIPNMFVDSSCALKYSDIRTGRESSLPSKEALEPSGENVIQNKESTG
Regarding B2, the binding result in experiment [2] was “binds”.

B3: ERLIN2 (co-expressed with Myc-tagged TM6SF2, Fig 3B) (protein, UniProt O94905 1-339)
chain: MAQLGAVVAVASSFFCASLFSAVHKIEEGHIGVYYRGGALLTSTSGPGFHLMLPFITSYKSVQTTLQTDEVKNVPCGTSGGVMIYFDRIEVVNFLVPNAVYDIVKNYTADYDKALIFNKIHHELNQFCSVHTLQEVYIELFDQIDENLKLALQQDLTSMAPGLVIQAVRVTKPNIPEAIRRNYELMESEKTKLLIAAQKQKVVEKEAETERKKALIEAEKVAQVAEITYGQKVMEKETEKKISEIEDAAFLAREKAKADAECYTAMKIAEANKLKLTPEYLQLMKYKAIASNSKIYFGKDIPNMFMDSAGSVSKQFEGLADKLSFGLEDEPLETATKEN
B3: the binding entry in experiment [2] is on record as “binds”.

B4: endogenous TM6SF2 of CRL1601 cells (protein, UniProt B0BNG2 1-378)
chain: MDIPPLAGRTVAMSLGALPVSYVLNQVSAFSQPLCVVLTSALVLGLLFMAVYSLSHGEITYDPLYAVFVVFSFTSVVDLVIALQEDGYLMGLMDFYAKEGEPYLRTAHGIFICYWDGTVHYLLYLTMAGAIRKRKRYRNLGLYWLGSFAMSLLVFLPGNILGKYSSEIRPTFFLAILYMLVPCWAGMRIFNQSPAPSSCTCDVVQEEQKKSLLQRPADLTLIVYLILAAFFTVFRGLVVLDCPADACFIYIYQYEPYLRDPVAYPKLQMLMYLFYALPFYCLAAYALTFPGCSWLPDWALVFAGAIGQAQFSHMGASMHLRTPFTYRVPEDTWATFLLSNLLFALGPHLLALRCLWRPAFFLRAAPPSSPQDQGKKQQ
Turning to B4, the binding entry in experiment [3] was “binds”.

These data come from article PMC7462549.
